These are yes or no findings as the source states them, for the method shown. Binding seen in cells or lysates may run through a third protein. Some entries that bind do so weakly or less than the wild type. One block for each molecule: values may come before it.
How the values were obtained:
[1] = biological target: T1, MTSS I-BAR domain containing 1 (MTSS1), ectopically expressed (human) (UniProt O43312); experiment: co-IP; ectopically expressed proteins in 293 T; lysis in IP buffer (150 mM NaCl, 20 mM HEPES pH 7.4, 1% Triton X-100); antibody with protein A or G dynabeads or Flag magnetic beads; immunoblot; AIP4 with PD-L1 was tested with or without MTSS1 overexpression
T1 sequence: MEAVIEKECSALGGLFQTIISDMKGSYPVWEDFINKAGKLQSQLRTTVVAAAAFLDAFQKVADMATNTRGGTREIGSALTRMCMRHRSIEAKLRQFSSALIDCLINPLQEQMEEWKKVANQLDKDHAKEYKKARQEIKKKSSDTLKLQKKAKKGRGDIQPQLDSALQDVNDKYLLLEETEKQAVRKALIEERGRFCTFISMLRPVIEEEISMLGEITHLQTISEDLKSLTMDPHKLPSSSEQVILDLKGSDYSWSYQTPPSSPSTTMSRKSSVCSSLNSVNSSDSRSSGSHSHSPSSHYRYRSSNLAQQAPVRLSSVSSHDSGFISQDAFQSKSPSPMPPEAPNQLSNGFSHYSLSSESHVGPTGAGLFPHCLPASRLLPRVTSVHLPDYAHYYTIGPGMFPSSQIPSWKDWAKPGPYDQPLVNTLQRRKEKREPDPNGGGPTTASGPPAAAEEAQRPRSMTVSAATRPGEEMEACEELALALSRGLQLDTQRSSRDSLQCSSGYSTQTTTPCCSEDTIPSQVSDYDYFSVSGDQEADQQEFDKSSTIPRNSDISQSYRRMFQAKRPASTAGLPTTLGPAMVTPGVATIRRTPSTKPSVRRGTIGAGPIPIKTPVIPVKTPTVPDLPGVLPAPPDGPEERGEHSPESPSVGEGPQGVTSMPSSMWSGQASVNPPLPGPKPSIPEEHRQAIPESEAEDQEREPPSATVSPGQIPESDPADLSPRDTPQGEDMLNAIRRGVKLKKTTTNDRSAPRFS

The chains behind the UniProt entries cited, without tags or fusion partners. Where a name states a change or a piece, a line headed by the entry shows the natural chain unless it says otherwise. A line that says so, or that is headed by a name, gives the form on record, which may keep a tag or linker. Residues count along the entry.
UniProt Q9NZQ7, residues 19-290: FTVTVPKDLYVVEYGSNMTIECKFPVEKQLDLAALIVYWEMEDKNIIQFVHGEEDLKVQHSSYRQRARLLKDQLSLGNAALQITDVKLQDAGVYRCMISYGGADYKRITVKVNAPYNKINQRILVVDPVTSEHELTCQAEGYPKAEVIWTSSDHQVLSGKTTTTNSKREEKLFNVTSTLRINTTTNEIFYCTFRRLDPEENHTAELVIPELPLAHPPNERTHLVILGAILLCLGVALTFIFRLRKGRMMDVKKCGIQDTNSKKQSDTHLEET
UniProt O14964: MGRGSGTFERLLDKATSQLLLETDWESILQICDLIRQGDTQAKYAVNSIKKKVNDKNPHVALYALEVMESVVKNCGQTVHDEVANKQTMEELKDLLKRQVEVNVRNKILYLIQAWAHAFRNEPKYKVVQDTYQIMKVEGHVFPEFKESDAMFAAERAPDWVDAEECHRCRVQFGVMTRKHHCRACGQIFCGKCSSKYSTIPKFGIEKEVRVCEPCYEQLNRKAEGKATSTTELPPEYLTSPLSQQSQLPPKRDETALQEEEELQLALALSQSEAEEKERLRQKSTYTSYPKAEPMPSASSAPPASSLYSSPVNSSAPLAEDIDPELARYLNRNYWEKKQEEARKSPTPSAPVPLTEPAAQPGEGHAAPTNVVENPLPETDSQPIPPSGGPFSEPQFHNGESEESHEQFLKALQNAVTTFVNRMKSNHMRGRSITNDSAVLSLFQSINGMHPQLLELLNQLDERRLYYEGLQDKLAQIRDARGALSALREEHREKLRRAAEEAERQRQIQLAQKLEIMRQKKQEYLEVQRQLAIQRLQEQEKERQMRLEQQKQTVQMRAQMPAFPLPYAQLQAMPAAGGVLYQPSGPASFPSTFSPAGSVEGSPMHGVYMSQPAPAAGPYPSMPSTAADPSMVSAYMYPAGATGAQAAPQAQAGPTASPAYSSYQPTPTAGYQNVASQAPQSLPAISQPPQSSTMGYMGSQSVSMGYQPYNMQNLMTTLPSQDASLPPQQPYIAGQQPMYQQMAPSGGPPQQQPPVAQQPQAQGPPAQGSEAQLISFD
UniProt P20339: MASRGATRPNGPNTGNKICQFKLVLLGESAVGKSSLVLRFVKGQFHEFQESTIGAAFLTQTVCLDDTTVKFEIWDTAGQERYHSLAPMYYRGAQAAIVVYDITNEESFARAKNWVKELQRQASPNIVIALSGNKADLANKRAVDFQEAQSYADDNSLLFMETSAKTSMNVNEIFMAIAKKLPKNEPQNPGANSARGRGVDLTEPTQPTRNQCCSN
UniProt P51149: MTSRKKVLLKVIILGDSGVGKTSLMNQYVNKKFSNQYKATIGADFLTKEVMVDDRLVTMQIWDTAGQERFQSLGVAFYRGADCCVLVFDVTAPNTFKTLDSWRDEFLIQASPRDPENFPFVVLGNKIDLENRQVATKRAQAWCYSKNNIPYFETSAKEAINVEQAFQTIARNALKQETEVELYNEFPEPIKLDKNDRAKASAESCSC
UniProt Q96J02: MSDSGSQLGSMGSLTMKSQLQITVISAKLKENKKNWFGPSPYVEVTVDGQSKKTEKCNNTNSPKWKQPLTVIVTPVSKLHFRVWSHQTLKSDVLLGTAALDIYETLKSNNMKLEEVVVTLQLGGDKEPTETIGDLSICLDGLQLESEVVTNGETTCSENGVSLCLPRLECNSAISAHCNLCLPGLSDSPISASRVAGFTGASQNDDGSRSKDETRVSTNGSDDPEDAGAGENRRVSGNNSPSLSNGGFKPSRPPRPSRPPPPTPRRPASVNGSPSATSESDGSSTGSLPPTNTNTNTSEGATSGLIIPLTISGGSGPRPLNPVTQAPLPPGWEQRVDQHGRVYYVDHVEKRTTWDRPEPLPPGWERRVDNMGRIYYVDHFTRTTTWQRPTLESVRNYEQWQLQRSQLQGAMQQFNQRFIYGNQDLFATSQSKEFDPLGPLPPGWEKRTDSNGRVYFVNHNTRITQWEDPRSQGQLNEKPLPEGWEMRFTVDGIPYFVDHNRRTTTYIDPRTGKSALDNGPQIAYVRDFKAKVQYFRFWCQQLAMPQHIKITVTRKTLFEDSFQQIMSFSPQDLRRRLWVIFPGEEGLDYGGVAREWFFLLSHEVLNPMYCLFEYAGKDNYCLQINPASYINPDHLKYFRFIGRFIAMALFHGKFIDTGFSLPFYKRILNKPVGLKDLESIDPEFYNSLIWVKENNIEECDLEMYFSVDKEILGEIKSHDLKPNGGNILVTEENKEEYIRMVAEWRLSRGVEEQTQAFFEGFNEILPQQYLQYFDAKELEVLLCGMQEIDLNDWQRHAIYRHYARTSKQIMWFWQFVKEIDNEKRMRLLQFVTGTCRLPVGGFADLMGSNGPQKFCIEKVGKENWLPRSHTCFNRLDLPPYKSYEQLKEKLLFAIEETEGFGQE
HECT ubiquitin ligase AIP4, ectopically expressed (Q96J02-2, form named): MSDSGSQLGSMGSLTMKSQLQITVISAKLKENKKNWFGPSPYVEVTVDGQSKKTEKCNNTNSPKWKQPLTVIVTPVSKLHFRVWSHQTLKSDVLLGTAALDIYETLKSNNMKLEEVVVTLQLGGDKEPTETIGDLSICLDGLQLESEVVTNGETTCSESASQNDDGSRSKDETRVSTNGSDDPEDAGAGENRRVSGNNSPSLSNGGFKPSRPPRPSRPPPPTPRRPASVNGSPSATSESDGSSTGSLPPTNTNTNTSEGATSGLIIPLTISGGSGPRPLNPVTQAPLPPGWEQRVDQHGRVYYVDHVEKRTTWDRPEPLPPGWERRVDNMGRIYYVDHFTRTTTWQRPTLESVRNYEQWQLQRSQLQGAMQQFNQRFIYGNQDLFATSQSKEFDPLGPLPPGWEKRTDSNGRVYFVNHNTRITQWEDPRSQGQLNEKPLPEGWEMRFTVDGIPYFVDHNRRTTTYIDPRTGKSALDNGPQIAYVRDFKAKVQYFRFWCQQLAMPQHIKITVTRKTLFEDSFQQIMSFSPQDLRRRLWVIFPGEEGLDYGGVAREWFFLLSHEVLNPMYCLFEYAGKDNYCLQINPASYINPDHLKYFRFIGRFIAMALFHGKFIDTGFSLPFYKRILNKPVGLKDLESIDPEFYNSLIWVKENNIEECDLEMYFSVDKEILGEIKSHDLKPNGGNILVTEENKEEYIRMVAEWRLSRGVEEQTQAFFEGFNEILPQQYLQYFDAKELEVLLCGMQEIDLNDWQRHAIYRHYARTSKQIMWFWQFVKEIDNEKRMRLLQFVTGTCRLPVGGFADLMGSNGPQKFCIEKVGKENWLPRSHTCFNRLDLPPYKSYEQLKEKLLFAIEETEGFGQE

[2] = biological target: PD-L1, ectopically expressed (human) (UniProt Q9NZQ7); experiment: co-IP; reciprocal co-immunoprecipitation of ectopically expressed proteins; multiple cell lines, not named (Supplementary Fig. S5b, c)
[3] = biological target: PD-L1, ectopically expressed (human) (UniProt Q9NZQ7); experiment: co-IP; screen of several E3 ligases reported to regulate membrane protein monoubiquitination, against PD-L1 (Supplementary Fig. S5a); cells not given
[4] = biological target: PD-L1, ectopically expressed (human) (UniProt Q9NZQ7); experiment: co-IP; ectopically expressed proteins in 293 T; lysis in IP buffer (150 mM NaCl, 20 mM HEPES pH 7.4, 1% Triton X-100); antibody with protein A or G dynabeads or Flag magnetic beads; immunoblot; AIP4 with PD-L1 was tested with or without MTSS1 overexpression
HRS (human) = HRS (human) (UniProt O14964); experiment: as above
[5] = biological target: PD-L1, ectopically expressed (human) (UniProt Q9NZQ7); experiment: as above; remark: listed apart in the source
RAB5A (human) = RAB5A (human) (UniProt P20339); experiment: as above
RAB7A (human) = RAB7A (human) (UniProt P51149); experiment: as above
[6] = biological target: PD-L1, endogenous (human (endogenous in H1975)) (UniProt Q9NZQ7); experiment: co-IP; endogenous proteins in H1975 lysate; immunoblot
[7] = biological target: AIP4 (whether ectopic or endogenous is not stated for the experiment) (not stated (human or mouse cDNA cloned)) (UniProt Q96J02); experiment: co-IP; in cancer cells (Supplementary Fig. S5d, e); ectopic or endogenous not stated
[8] = biological target: AIP4 (whether ectopic or endogenous is not stated for the experiment) (not stated (human or mouse cDNA cloned)) (UniProt Q96J02); experiment: co-IP; sequential immunoprecipitation (Supplementary Fig. S5j); order of the precipitations and cells not stated
[9] = biological target: PD-L1 (whether ectopic or endogenous is not stated for the experiment) (UniProt Q9NZQ7); experiment: as above
[10] = biological target: PD-L1 (whether ectopic or endogenous is not stated for the experiment) (UniProt Q9NZQ7); experiment: co-IP; MTSS1 with PD-L1 after KRAS G12C overexpression or EGF treatment (Supplementary Fig. S7h); cells not given
[11] = biological target: PD-L1 (whether ectopic or endogenous is not stated for the experiment) (UniProt Q9NZQ7); experiment: co-IP; CMTM6 with PD-L1, tested for an effect of MTSS1 (Supplementary Fig. S4a); cells not given

- binding [1]: binds
Molecule: PD-L1, ectopically expressed (from UniProt Q9NZQ7 19-290)

- binding [2]: binds
- binding [3]: binds
- binding [4]: binds
Molecule: HECT ubiquitin ligase AIP4, ectopically expressed (from UniProt Q96J02-2 1-862) (enzyme)

- binding (HRS (human)): binds
- binding [5]: binds
- binding (RAB5A (human)): binds
- binding (RAB7A (human)): binds
B1: MTSS I-BAR domain containing 1 (MTSS1), ectopically expressed (protein, UniProt O43312 1-755)
chain: T1 sequence

- binding [6]: binds
B2: MTSS1, endogenous in H1975 (protein, UniProt O43312 1-755)
chain: T1 sequence

- binding [7]: binds
- binding [8]: binds
- binding [9]: binds
- binding [10]: binds
B3: MTSS1 (whether ectopic or endogenous is not stated for the experiment) (protein, UniProt O43312 1-755)
chain: T1 sequence

- binding [11]: binds
B4: CMTM6 (protein, UniProt Q9NX76 1-183)
chain: MENGAVYSPTTEEDPGPARGPRSGLAAYFFMGRLPLLRRVLKGLQLLLSLLAFICEEVVSQCTLCGGLYFFEFVSCSAFLLSLLILIVYCTPFYERVDTTKVKSSDFYITLGTGCVFLLASIIFVSTHDRTSAEIAAIVFGFIASFMFLLDFITMLYEKRQESQLRKPENTTRAEALTEPLNA
